# Laboratory results: PMC8384837
# Changes are numbered by the printed parent chain. Some of the results follow. At the low end of the ranking the order means little.
# What was measured:
# Conditions in all cases: yeast three-hybrid, YBZ-1, SC-Leu-His + 0.5 mM 3-AT, 4 days
# [1] = molecular target: T1, PUM1 PUF domain R6-AFL N1043A + Y1044F + Q1047L (UniProt Q14671)
# T1 sequence: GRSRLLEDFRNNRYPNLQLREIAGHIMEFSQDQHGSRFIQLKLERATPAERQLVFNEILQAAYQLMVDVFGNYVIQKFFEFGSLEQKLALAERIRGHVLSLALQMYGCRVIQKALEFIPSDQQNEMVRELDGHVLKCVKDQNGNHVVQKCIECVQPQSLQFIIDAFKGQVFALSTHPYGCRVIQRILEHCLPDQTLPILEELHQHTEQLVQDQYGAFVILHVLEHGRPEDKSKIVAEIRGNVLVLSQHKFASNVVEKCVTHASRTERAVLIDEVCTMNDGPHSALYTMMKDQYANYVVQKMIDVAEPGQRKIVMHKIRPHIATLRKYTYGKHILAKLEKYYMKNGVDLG
# [2] = molecular target: T2, PUM1 PUF domain R6-AWR N1043A + Y1044W + Q1047R (UniProt Q14671)
# T2 sequence: T1 sequence with F217W, L220R
# [3] = molecular target: T3, PUM1 PUF domain R6-AWV N1043A + Y1044W + Q1047V (UniProt Q14671)
# T3 sequence: T1 sequence with F217W, L220V
# [4] = molecular target: T4, PUM1 PUF domain R6-EWG N1043E + Y1044W + Q1047G (UniProt Q14671)
# T4 sequence: T1 sequence with A216E, F217W, L220G
# [5] = molecular target: T5, PUM1 PUF domain R6-GFG N1043G + Y1044F + Q1047G (UniProt Q14671)
# T5 sequence: T1 sequence with A216G, L220G
# [6] = molecular target: T6, PUM1 PUF domain R6-GFQ N1043G + Y1044F (UniProt Q14671)
# T6 sequence: T1 sequence with A216G, L220Q
# [7] = molecular target: T7, PUM1 PUF domain R6-GLR N1043G + Y1044L + Q1047R (UniProt Q14671)
# T7 sequence: T1 sequence with A216G, F217L, L220R
# [8] = molecular target: T8, PUM1 PUF domain R6-GRQ N1043G + Y1044R (UniProt Q14671)
# T8 sequence: T1 sequence with A216G, F217R, L220Q
# [9] = molecular target: T9, PUM1 PUF domain R6-HHR N1043H + Y1044H + Q1047R (UniProt Q14671)
# T9 sequence: T1 sequence with A216H, F217H, L220R
# [10] = molecular target: T10, PUM1 PUF domain R6-IYS N1043I + Q1047S (UniProt Q14671)
# T10 sequence: T1 sequence with A216I, F217Y, L220S
# [11] = molecular target: T11, PUM1 PUF domain R6-LWR N1043L + Y1044W + Q1047R (UniProt Q14671)
# T11 sequence: T1 sequence with A216L, F217W, L220R
# [12] = molecular target: T12, PUM1 PUF domain R6-LYL N1043L + Q1047L (UniProt Q14671)
# T12 sequence: T1 sequence with A216L, F217Y
# [13] = molecular target: T13, PUM1 PUF domain R6-NRG Y1044R + Q1047G (UniProt Q14671)
# T13 sequence: T1 sequence with A216N, F217R, L220G
# [14] = molecular target: T14, PUM1 PUF domain R6-QRS N1043Q + Y1044R + Q1047S (UniProt Q14671)
# T14 sequence: T1 sequence with A216Q, F217R, L220S
# [15] = molecular target: T15, PUM1 PUF domain R6-RYG N1043R + Q1047G (UniProt Q14671)
# T15 sequence: T1 sequence with A216R, F217Y, L220G
# [16] = molecular target: T16, PUM1 PUF domain R6-SWG N1043S + Y1044W + Q1047G (UniProt Q14671)
# T16 sequence: T1 sequence with A216S, F217W, L220G
# [17] = molecular target: T17, PUM1 PUF domain R6-SWV N1043S + Y1044W + Q1047V (UniProt Q14671)
# T17 sequence: T1 sequence with A216S, F217W, L220V
# [18] = molecular target: T18, PUM1 PUF domain R6-TFG N1043T + Y1044F + Q1047G (UniProt Q14671)
# T18 sequence: T1 sequence with A216T, L220G
# [19] = molecular target: T19, PUM1 PUF domain R6-VFG N1043V + Y1044F + Q1047G (UniProt Q14671)
# T19 sequence: T1 sequence with A216V, L220G
# [20] = molecular target: T20, PUM1 PUF domain R6-VWR N1043V + Y1044W + Q1047R (UniProt Q14671)
# T20 sequence: T1 sequence with A216V, F217W, L220R
sequence,measurement,setting,value
GGCUAGAACUAGUGGAUCCCCCGGCGCCCGGCGGCUCGAGCCCGGGUAAGUGGAAAUAGUCUGCAUGCCGCCGGGCGCCAUGCCUGCAGGUCGACUCUAGAAAACAUG,binding signal (log2 enrichment (interaction score)),[1],< -7.01
same,binding signal (log2 enrichment (interaction score)),[2],< -9.9
same,binding signal (log2 enrichment (interaction score)),[3],< -8.07
same,binding signal (log2 enrichment (interaction score)),[4],-7.86
same,binding signal (log2 enrichment (interaction score)),[5],-8.15
same,binding signal (log2 enrichment (interaction score)),[6],-7.55
same,binding signal (log2 enrichment (interaction score)),[7],-9.47
same,binding signal (log2 enrichment (interaction score)),[8],-6.74
same,binding signal (log2 enrichment (interaction score)),[9],-7.22
same,binding signal (log2 enrichment (interaction score)),[10],-6.79
same,binding signal (log2 enrichment (interaction score)),[11],-8.22
same,binding signal (log2 enrichment (interaction score)),[12],< -7.82
same,binding signal (log2 enrichment (interaction score)),[13],< -10
same,binding signal (log2 enrichment (interaction score)),[14],-7.47
same,binding signal (log2 enrichment (interaction score)),[15],-6.62
same,binding signal (log2 enrichment (interaction score)),[16],-6.48
same,binding signal (log2 enrichment (interaction score)),[17],-7.18
same,binding signal (log2 enrichment (interaction score)),[18],-6.91
same,binding signal (log2 enrichment (interaction score)),[19],-6.47
same,binding signal (log2 enrichment (interaction score)),[20],-6.31

# Another view of part of the listing above.
sequence	measurement	setting	value
GGCUAGAACUAGUGGAUCCCCCGGCGCCCGGCGGCUCGAGCCCGGGUAAGUGGAAAUAGUCUGCAUGCCGCCGGGCGCCAUGCCUGCAGGUCGACUCUAGAAAACAUG	binding signal (log2 enrichment (interaction score))	[6]	-7.55
same	binding signal (log2 enrichment (interaction score))	[11]	-8.22
same	binding signal (log2 enrichment (interaction score))	[12]	< -7.82
